# Laboratory results: the supplement of paper PMC11438910
# The list shows a part of the results. The signal is at background level for most entries.
# How the values were obtained:
# Experiment in all cases: fluorescence intensity of antibody binding to polysaccharide-coupled beads; higher = stronger binding
# [1] = biological target: pneumococcal polysaccharide C-Poly-1
# [2] = biological target: pneumococcal polysaccharide C-Poly-2
# [3] = biological target: pneumococcal polysaccharide Pn1
# [4] = biological target: pneumococcal polysaccharide Pn10A
# [5] = biological target: pneumococcal polysaccharide Pn10B
# [6] = biological target: pneumococcal polysaccharide Pn10C
# [7] = biological target: pneumococcal polysaccharide Pn10F
# [8] = biological target: pneumococcal polysaccharide Pn11A
# [9] = biological target: pneumococcal polysaccharide Pn11B
# [10] = biological target: pneumococcal polysaccharide Pn11C
# [11] = biological target: pneumococcal polysaccharide Pn11D
# [12] = biological target: pneumococcal polysaccharide Pn11F
# [13] = antibody concentration 0.1 ng/mL
# [14] = antibody concentration 0.534724 ng/mL
# [15] = antibody concentration 2.8593 ng/mL
# [16] = antibody concentration 15.2894 ng/mL
# [17] = antibody concentration 81.7561 ng/mL
# [18] = antibody concentration 437.17 ng/mL
# [19] = antibody concentration 2337.65 ng/mL
# [20] = antibody concentration 12500 ng/mL
binder,measurement,setting,value
4-80.4 (protein) chain 1: QVQLQESGPGLVKPSETLSLTCAVSGGSFSSYWWSWIRQSPGKGLEWIGEISGNSGSTNYNPSLKSRVTISKDASKNQFSLKLSSVTAADTAVYYCARYKEYWGQGVLVTVSS chain 2: DVVMTQSPLSLLITPGQPASISCRSSQSLVHSNGNTYLSWYQQKPGQPPRRLLYEVSNRDSGVPDRFSGSGAGTDFTLKISRVEAEDVGVYYCGQGTHLPYSFGQGTKVEIK,fluorescence intensity,[1]; [13],25.8 MFI
same,fluorescence intensity,[1]; [14],25 MFI
same,fluorescence intensity,[1]; [15],27 MFI
same,fluorescence intensity,[1]; [16],25 MFI
same,fluorescence intensity,[1]; [17],26.5 MFI
same,fluorescence intensity,[1]; [18],28 MFI
same,fluorescence intensity,[1]; [19],31.5 MFI
same,fluorescence intensity,[1]; [20],90.5 MFI
same,fluorescence intensity,[2]; [13],21.5 MFI
same,fluorescence intensity,[2]; [14],21.5 MFI
same,fluorescence intensity,[2]; [15],21.5 MFI
same,fluorescence intensity,[2]; [16],19.5 MFI
same,fluorescence intensity,[2]; [17],20 MFI
same,fluorescence intensity,[2]; [18],21.2 MFI
same,fluorescence intensity,[2]; [19],24.5 MFI
same,fluorescence intensity,[2]; [20],70.5 MFI
same,fluorescence intensity,[3]; [13],13 MFI
same,fluorescence intensity,[3]; [14],13 MFI
same,fluorescence intensity,[3]; [15],13 MFI
same,fluorescence intensity,[3]; [16],13 MFI
same,fluorescence intensity,[3]; [17],14.8 MFI
same,fluorescence intensity,[3]; [18],14 MFI
same,fluorescence intensity,[3]; [19],17 MFI
same,fluorescence intensity,[3]; [20],27.5 MFI
same,fluorescence intensity,[4]; [13],26.5 MFI
same,fluorescence intensity,[4]; [14],26.8 MFI
same,fluorescence intensity,[4]; [15],27.5 MFI
same,fluorescence intensity,[4]; [16],26.8 MFI
same,fluorescence intensity,[4]; [17],27 MFI
same,fluorescence intensity,[4]; [18],27 MFI
same,fluorescence intensity,[4]; [19],27 MFI
same,fluorescence intensity,[4]; [20],34.5 MFI
same,fluorescence intensity,[5]; [13],23.5 MFI
same,fluorescence intensity,[5]; [14],25 MFI
same,fluorescence intensity,[5]; [15],24.5 MFI
same,fluorescence intensity,[5]; [16],23.5 MFI
same,fluorescence intensity,[5]; [17],24 MFI
same,fluorescence intensity,[5]; [18],26 MFI
same,fluorescence intensity,[5]; [19],24 MFI
same,fluorescence intensity,[5]; [20],31 MFI
same,fluorescence intensity,[6]; [13],15.5 MFI
same,fluorescence intensity,[6]; [14],17 MFI
same,fluorescence intensity,[6]; [15],17.2 MFI
same,fluorescence intensity,[6]; [16],17.5 MFI
same,fluorescence intensity,[6]; [17],17.5 MFI
same,fluorescence intensity,[6]; [18],17.5 MFI
same,fluorescence intensity,[6]; [19],18.5 MFI
same,fluorescence intensity,[6]; [20],18.8 MFI
same,fluorescence intensity,[7]; [13],20 MFI
same,fluorescence intensity,[7]; [14],20.5 MFI
same,fluorescence intensity,[7]; [15],19.5 MFI
same,fluorescence intensity,[7]; [16],19.5 MFI
same,fluorescence intensity,[7]; [17],20 MFI
same,fluorescence intensity,[7]; [18],18.8 MFI
same,fluorescence intensity,[7]; [19],21 MFI
same,fluorescence intensity,[7]; [20],23 MFI
same,fluorescence intensity,[8]; [13],25 MFI
same,fluorescence intensity,[8]; [14],30.5 MFI
same,fluorescence intensity,[8]; [15],25.8 MFI
same,fluorescence intensity,[8]; [16],27.5 MFI
same,fluorescence intensity,[8]; [17],29 MFI
same,fluorescence intensity,[8]; [18],30.2 MFI
same,fluorescence intensity,[8]; [19],31.5 MFI
same,fluorescence intensity,[8]; [20],39.5 MFI
same,fluorescence intensity,[9]; [13],25.5 MFI
same,fluorescence intensity,[9]; [14],27.5 MFI
same,fluorescence intensity,[9]; [15],26 MFI
same,fluorescence intensity,[9]; [16],27.2 MFI
same,fluorescence intensity,[9]; [17],29.5 MFI
same,fluorescence intensity,[9]; [18],29.5 MFI
same,fluorescence intensity,[9]; [19],30.8 MFI
same,fluorescence intensity,[9]; [20],36.5 MFI
same,fluorescence intensity,[10]; [13],21.5 MFI
same,fluorescence intensity,[10]; [14],21.2 MFI
same,fluorescence intensity,[10]; [15],21.5 MFI
same,fluorescence intensity,[10]; [16],22.5 MFI
same,fluorescence intensity,[10]; [17],22.5 MFI
same,fluorescence intensity,[10]; [18],23.2 MFI
same,fluorescence intensity,[10]; [19],28.2 MFI
same,fluorescence intensity,[10]; [20],76.8 MFI
same,fluorescence intensity,[11]; [13],25 MFI
same,fluorescence intensity,[11]; [14],22 MFI
same,fluorescence intensity,[11]; [15],23 MFI
same,fluorescence intensity,[11]; [16],25.2 MFI
same,fluorescence intensity,[11]; [17],22.2 MFI
same,fluorescence intensity,[11]; [18],24.8 MFI
same,fluorescence intensity,[11]; [19],26 MFI
same,fluorescence intensity,[11]; [20],49.2 MFI
same,fluorescence intensity,[12]; [13],15.5 MFI
same,fluorescence intensity,[12]; [14],15.5 MFI

# Some of the entries so far, with bars between the fields:
binder | measurement | setting | value
4-80.4 (protein) chain 1: QVQLQESGPGLVKPSETLSLTCAVSGGSFSSYWWSWIRQSPGKGLEWIGEISGNSGSTNYNPSLKSRVTISKDASKNQFSLKLSSVTAADTAVYYCARYKEYWGQGVLVTVSS chain 2: DVVMTQSPLSLLITPGQPASISCRSSQSLVHSNGNTYLSWYQQKPGQPPRRLLYEVSNRDSGVPDRFSGSGAGTDFTLKISRVEAEDVGVYYCGQGTHLPYSFGQGTKVEIK | fluorescence intensity | [2]; [19] | 24.5 MFI
same | fluorescence intensity | [2]; [20] | 70.5 MFI
same | fluorescence intensity | [3]; [13] | 13 MFI
same | fluorescence intensity | [3]; [14] | 13 MFI
same | fluorescence intensity | [3]; [15] | 13 MFI
